# Results taken from PubChem BioAssay (EPA / NIEHS).
# Values joined by “and” are separate entries in the source; they are usually repeats but may differ in a detail not shown here. Equal values may be shown once. The shares of active, inactive and inconclusive entries below differ from those in the screen. A potency beside an inconclusive call is a rough fit, not a confirmed value. Active and inactive are the calls of the source. The calls were made as follows: active = hit-call score of the fitted dose curve at least 0.9, where 1 is the maximum; inconclusive = response in the unintended direction; inactive = score below 0.9.
# Assay: TOX21_p53_BLA_p5_viability: Viability Assessment in the Tox21 HCT-116 p53 Agonism Beta-lactamase Assay, Phase 5 (AID 2283600)
# Text: TOX21_p53_BLA_p5 is a cell-based, single-readout assay that uses HCT116, a human intestinal cell line, […] in a 1536-well plate.TOX21_p53_BLA_p5_viability is an assay readout measuring cellular ATP content and detected with CellTiter-Glo Luciferase-coupled ATP quantitation.TOX21_p53_BLA_p5_viability used a type of viability reporter where loss-of-signal activity can be used to understand changes in the cell viability. Furthermore, this assay endpoint can be referred to as a secondary readout, because this assay has produced multiple assay endpoints where this one serves a viability function. To generalize the intended target to other relatable targets, this assay endpoint is annotated to the cell cycle intended target family, where the subfamily is cytotoxicity.
# Thawing Method: Place 14 mL of pre-warmed thaw medium into a 15 mL of conical tub. Remove the vial of cells to be thawed from liquid nitrogen and thaw rapidly by placing at 37C in a water bath with gentle agitation for 1-2 minutes. Decontaminate the vial by wiping with 70% ethanol before opening in a biological safety cabinet. Transfer the vial contents drop-wise into 14 mL of thaw medium in a sterile 15-mL conical tub. Centrifuge cells at 900 rpm for 4 minutes and resuspend in thaw medium. Transfer contents to the T75 tissue culture flask containing Thaw Medium and place flask in a humidified 37C/5% CO2 incubator. Switch to growth medium at first passage.Propagation Method: Aspirate medium, rinse once in DPBS, add 0.25% Trypsin/EDTA and swirl to coat the cell evenly. Add an equal volume of Growth Medium to inactivate Trypsin after 2-3 minutes incubation at 37C. Centrifuge cells at 900 rpm for 4 minutes and resuspend in growth medium. Cell should be passage or fed at least twice a week.Assay Protocol: Harvest cells from culture in growth medium and resuspend in assay medium. 2.2 Dispense 4000 cells/5 uL/well into 1536-well black/clear bottom plates using a Multidrop dispenser. After the cells were incubated at 37C for 5 hours, 23 nL of compounds dissolved in DMSO were transferred to the assay plate by a PinTool resulting in a 217-fold dilution. Incubate the plates for 16 hours at 37C, 5% CO2. Add 1 uL of 6X LiveBLAzer FRET B/G (CCF4-AM) Substrate Mixture to each well using a BioRAPTR dispenser and incubate the plates at room temperature for 2 hours. Measure fluorescence intensity at 460 and 530 nm emission and 405 nm excitation by an Envision detector. Data is expressed as the ratio of 460nm/530nm emissions. Add 4 uL of Cell-titer Glo to each well using BioRAPTR and incubate the plates at room temperature for […]. For cell viability readout that measures cytotoxicity, 4 ul/well of CellTiter-Glo reagent was added into the assay plates using a Flying Reagent Dispenser. After 30 min incubation at room temperature, the luminescence intensity in the plates was measured using a ViewLux plate reader.
Compound,AC50,outcome
Cc1cccc(Cc2cnc[nH]2)c1C,–,inactive
C[CH2][Hg][S]c1ccccc1C(=O)O,active: 46.1 µM and active: 7.05 µM,–
Oc1c(Cl)c(Cl)cc(Cl)c1Cl,inconclusive: 49.6 µM,–
c1ccc2c(c1)Oc1ccccc1O2,–,inactive
CC1OC(C)OC(C)O1 (stereo not given),inconclusive: 43.3 µM,inactive
ClC1C(Cl)C(Cl)C(Cl)C(Cl)C1Cl (stereo not given),inconclusive: 46.4 µM and inconclusive: 12 nM,–
FC(F)OC(F)(F)C(F)Cl (stereo not given),inconclusive: 86.5 µM and inconclusive: 23 µM,–
CCCCCc1cc(O)cc(O)c1,inconclusive: 46.1 µM and inconclusive: 46.3 µM,–
CCCCP(CCCC)CCCC,–,inactive
CCCCCCCCCCCCCCCCCCn1cc[n+](C)c1,inconclusive: 84.5 µM,–
Nc1ccc([N+](=O)[O-])cc1N,inconclusive: 3.5 µM,inactive
CCC(Br)(CC)C(=O)NC(N)=O,inconclusive: 46.1 µM,–
Cc1cc(O)ccc1Cl,inconclusive: 46.1 µM and inconclusive: 1.4 µM,–
Clc1nc(Cl)nc(Cl)n1,inconclusive: 45.4 µM,inactive
CC(C)(O)C#N,–,inactive
Clc1ccc(C2(Cn3cncn3)OCCO2)c(Cl)c1,inconclusive: 23 µM,–
CN(C)c1ccc(N(C)C)cc1,inconclusive: 46.2 µM,–

Compound,AC50,outcome
CC(=O)O[C@H]1C[C@H](O[C@H]2[C@@H](O)C[C@H](O[C@H]3[C@@H](O)C[C@H](OC4CC[C@@]5(C)C(CC[C@@H]6[C@@H]5CC[C@]5(C)[C@@H](C7=CC(=O)OC7)[C@@H](O)C[C@]65O)C4)O[C@@H]3C)O[C@@H]2C)O[C@H](C)[C@H]1O[C@@H]1O[C@H](CO)[C@@H](O)[C@H](O)[C@H]1O (stereo not given in full),active: 0.473 µM,–
Cc1c(Cl)c(=O)oc2cc(OP(=O)(OCCCl)OCCCl)ccc12,–,inactive
O=C1CN=C(c2ccccc2)c2cc(Cl)ccc2N1,inconclusive: 23 µM,–
COP(=S)(OC)Oc1cc(Cl)c(Cl)cc1Cl,inconclusive: 23 µM,–
CC1CN1 (stereo not given),inconclusive: 0.174 µM,–
Cc1cccc(N)c1C,–,inactive
CCCC1CCCCN1 (stereo not given),inconclusive: 23 µM,–
CCS(=O)(=O)CCSP(=O)(OC)OC,inconclusive: 46.1 µM,–
CCN(C)N=O,inconclusive: 45.4 µM,–
CCOC(=O)c1ncn2c1CN(C)C(=O)c1c(I)cccc1-2,inconclusive: 23 µM,–
CC(=O)OC1(c2ccccc2)CCN(CCc2ccccc2)CC1,inconclusive: 51.8 µM,–
CC(C)c1c(CN(C)C(C)Cc2ccccc2)n(C)n(-c2ccccc2)c1=O (stereo not given),inconclusive: 10.3 µM,–
CCN(CC)CCOC(=O)C(C)(c1ccccc1)c1ccccc1,inconclusive: 23 µM,–
C1CS1,inconclusive: 9.34 µM,–
CCCC(C)(COC(N)=O)COC(=O)NC1CC1 (stereo not given),–,inactive
N#Cc1ccccn1,inconclusive: 47.7 µM,inactive
CCCC(C)(COC(N)=O)COC(=O)NC(C)C (stereo not given),inconclusive: 2.47 µM,–
CCOS(C)(=O)=O,inconclusive: 46.8 µM,–

# At a glance, some entries already given.
Compound,AC50,outcome
CC(=O)O[C@H]1C[C@H](O[C@H]2[C@@H](O)C[C@H](O[C@H]3[C@@H](O)C[C@H](OC4CC[C@@]5(C)C(CC[C@@H]6[C@@H]5CC[C@]5(C)[C@@H](C7=CC(=O)OC7)[C@@H](O)C[C@]65O)C4)O[C@@H]3C)O[C@@H]2C)O[C@H](C)[C@H]1O[C@@H]1O[C@H](CO)[C@@H](O)[C@H](O)[C@H]1O (stereo not given in full),active: 0.473 µM,–
Cc1c(Cl)c(=O)oc2cc(OP(=O)(OCCCl)OCCCl)ccc12,–,inactive
O=C1CN=C(c2ccccc2)c2cc(Cl)ccc2N1,inconclusive: 23 µM,–
